PubChem BioAssay AID1508597, Cure First – 2020
Shown is one part, drawn at random, of about 2,100 reagents. 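Calls flag viability under 80% in either arm, not effects specific to rucaparib; the reference for percent is not stated.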 A number with no mark means an inactive call. Not stated in the record: the 100% reference.

Assay: 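Knock-downs altering ovarian cancer cell survival with or without PARP inhibitor rucaparib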 (primary screen)
Cell system: human ovarian carcinoma lines grown from tumours: OCI-P5x (papillary serous) and OCI-C5x (clear cell)
Reagents: siRNA pool against human genes, 1.25 pmol siRNA per well
Time to read-out: 72 h or 96 h, depending on the cell culture
Conditions: rucaparib 20 µM (about IC30) or vehicle, present until read-out
Measurement: 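Luminescent ATP-based viability assay read 72 or 96 h after transfection, depending on culture, given as normalised percent viability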
Scale: viability, normalised: higher = more viable cells remaining
Hit rule: 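a well counts as a hit if its normalised viability is under 80 percent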
Calls: active = viability under 80%; inactive = viability 80% or more

INO80 (INO80 complex ATPase subunit), rucaparib or vehicle Rucaparib, cell line OCI-C5x (clear cell), technical replicate 1 gave viability, normalised (%) = 42.7 (active).
INO80 (INO80 complex ATPase subunit), rucaparib or vehicle Rucaparib, cell line OCI-C5x (clear cell), technical replicate 2 showed viability, normalised (%) = 52.2 (active).
INO80 (INO80 complex ATPase subunit), rucaparib or vehicle Rucaparib, cell line OCI-C5x (clear cell), technical replicate 3 showed viability, normalised (%) = 43 (active).
INO80 (INO80 complex ATPase subunit), rucaparib or vehicle Rucaparib, cell line OCI-P5x (serous), technical replicate 1 showed viability, normalised (%) = 64.7 (active).
INO80 (INO80 complex ATPase subunit), rucaparib or vehicle Rucaparib, cell line OCI-P5x (serous), technical replicate 2 showed viability, normalised (%) = 59.2 (active).
For INO80 (INO80 complex ATPase subunit), rucaparib or vehicle Rucaparib, cell line OCI-P5x (serous), technical replicate 3, the entry reads viability, normalised (%) = 62.4 (active).
For INO80 (INO80 complex ATPase subunit), rucaparib or vehicle Vehicle, cell line OCI-C5x (clear cell), technical replicate 1, the entry reads viability, normalised (%) = 33.4 (active).
INO80 (INO80 complex ATPase subunit), rucaparib or vehicle Vehicle, cell line OCI-C5x (clear cell), technical replicate 2 showed viability, normalised (%) = 34.1 (active).
INO80 (INO80 complex ATPase subunit), rucaparib or vehicle Vehicle, cell line OCI-C5x (clear cell), technical replicate 3 gave viability, normalised (%) = 44 (active).
With INO80 (INO80 complex ATPase subunit), rucaparib or vehicle Vehicle, cell line OCI-P5x (serous), technical replicate 1 the deposit lists viability, normalised (%) = 60.6 (active).
For INO80 (INO80 complex ATPase subunit), rucaparib or vehicle Vehicle, cell line OCI-P5x (serous), technical replicate 2 the deposit lists viability, normalised (%) = 57.1 (active).
With INO80 (INO80 complex ATPase subunit), rucaparib or vehicle Vehicle, cell line OCI-P5x (serous), technical replicate 3 the deposit lists viability, normalised (%) = 79.4 (active).
TWF1 (twinfilin actin binding protein 1), rucaparib or vehicle Rucaparib, cell line OCI-C5x (clear cell), technical replicate 1 scored viability, normalised (%) = 52.4 (active).
With TWF1 (twinfilin actin binding protein 1), rucaparib or vehicle Rucaparib, cell line OCI-C5x (clear cell), technical replicate 2, the values are viability, normalised (%) = 61.1 (active).
With TWF1 (twinfilin actin binding protein 1), rucaparib or vehicle Rucaparib, cell line OCI-C5x (clear cell), technical replicate 3 the deposit lists viability, normalised (%) = 52.1 (active).
TWF1 (twinfilin actin binding protein 1), rucaparib or vehicle Rucaparib, cell line OCI-P5x (serous), technical replicate 1 gave viability, normalised (%) = 117.
TWF1 (twinfilin actin binding protein 1), rucaparib or vehicle Rucaparib, cell line OCI-P5x (serous), technical replicate 2 gave viability, normalised (%) = 110.
For TWF1 (twinfilin actin binding protein 1), rucaparib or vehicle Rucaparib, cell line OCI-P5x (serous), technical replicate 3, the values are viability, normalised (%) = 102.
For TWF1 (twinfilin actin binding protein 1), rucaparib or vehicle Vehicle, cell line OCI-C5x (clear cell), technical replicate 1, the entry reads viability, normalised (%) = 50.3 (active).
For TWF1 (twinfilin actin binding protein 1), rucaparib or vehicle Vehicle, cell line OCI-C5x (clear cell), technical replicate 2, the entry reads viability, normalised (%) = 43.3 (active).
With TWF1 (twinfilin actin binding protein 1), rucaparib or vehicle Vehicle, cell line OCI-C5x (clear cell), technical replicate 3 the deposit lists viability, normalised (%) = 53.7 (active).
TWF1 (twinfilin actin binding protein 1), rucaparib or vehicle Vehicle, cell line OCI-P5x (serous), technical replicate 1 gave viability, normalised (%) = 82.3.
TWF1 (twinfilin actin binding protein 1), rucaparib or vehicle Vehicle, cell line OCI-P5x (serous), technical replicate 2 scored viability, normalised (%) = 84.7.
TWF1 (twinfilin actin binding protein 1), rucaparib or vehicle Vehicle, cell line OCI-P5x (serous), technical replicate 3 showed viability, normalised (%) = 84.6.

Reformatted: results already given
TWF1 (twinfilin actin binding protein 1), rucaparib or vehicle Vehicle, cell line OCI-C5x (clear cell), technical replicate 1
- viability, normalised (%): 50.3 (active)

TWF1 (twinfilin actin binding protein 1), rucaparib or vehicle Vehicle, cell line OCI-C5x (clear cell), technical replicate 2
- viability, normalised (%): 43.3 (active)

TWF1 (twinfilin actin binding protein 1), rucaparib or vehicle Vehicle, cell line OCI-C5x (clear cell), technical replicate 3
- viability, normalised (%): 53.7 (active)
